Laboratory results published in article PMC12729082.
Where a chain is given by its changes, count along the chain named. These are yes or no findings as the source states them, for the method shown. In cells and extracts the contact can be indirect. Some binding calls cover weakened binding; strength is not graded here. For part of these data: Where a sequence is shown, tags or fusion partners need not be part of it.

Protein sequences, listed by entry. Tags and fused reporters are not part of them.
UniProt Q9Y297: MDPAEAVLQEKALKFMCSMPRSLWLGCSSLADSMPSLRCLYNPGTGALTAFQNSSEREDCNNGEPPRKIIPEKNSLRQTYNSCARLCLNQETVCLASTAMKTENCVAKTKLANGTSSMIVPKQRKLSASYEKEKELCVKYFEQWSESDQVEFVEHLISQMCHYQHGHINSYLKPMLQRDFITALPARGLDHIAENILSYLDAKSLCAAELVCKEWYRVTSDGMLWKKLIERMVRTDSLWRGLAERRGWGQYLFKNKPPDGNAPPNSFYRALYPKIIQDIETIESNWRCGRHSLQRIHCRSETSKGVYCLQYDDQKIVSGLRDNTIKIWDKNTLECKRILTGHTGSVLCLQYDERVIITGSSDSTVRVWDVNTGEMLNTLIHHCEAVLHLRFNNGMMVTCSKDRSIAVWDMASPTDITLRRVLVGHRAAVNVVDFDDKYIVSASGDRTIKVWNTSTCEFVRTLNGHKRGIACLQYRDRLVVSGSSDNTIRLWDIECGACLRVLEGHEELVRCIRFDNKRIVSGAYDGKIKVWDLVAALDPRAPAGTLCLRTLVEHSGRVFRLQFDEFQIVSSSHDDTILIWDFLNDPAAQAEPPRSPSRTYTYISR

How the values were obtained:
[1] = target: Beta-Transducin Repeat Containing E3 Ubiquitin Protein Ligase (BTRC) (human (endogenous in T24 and UMUC3 bladder cancer cells)) (UniProt Q9Y297); experiment: co-IP; endogenous proteins from BCa cell lysate (20 mM Tris pH 7.5, 150 mM NaCl, 1% Triton X-100), primary antibody with protein A/G agarose beads overnight at 4 °C, six washes, Western blot; for BTRC-SRSF7 also after HDAC7 knockdown (T24) or HDAC7 overexpression (UMUC3)
[2] = target: T1, Histone deacetylase HDAC7 (human (endogenous in T24 and UMUC3 bladder cancer cells)) (UniProt Q8WUI4); experiment: as above
T1 sequence: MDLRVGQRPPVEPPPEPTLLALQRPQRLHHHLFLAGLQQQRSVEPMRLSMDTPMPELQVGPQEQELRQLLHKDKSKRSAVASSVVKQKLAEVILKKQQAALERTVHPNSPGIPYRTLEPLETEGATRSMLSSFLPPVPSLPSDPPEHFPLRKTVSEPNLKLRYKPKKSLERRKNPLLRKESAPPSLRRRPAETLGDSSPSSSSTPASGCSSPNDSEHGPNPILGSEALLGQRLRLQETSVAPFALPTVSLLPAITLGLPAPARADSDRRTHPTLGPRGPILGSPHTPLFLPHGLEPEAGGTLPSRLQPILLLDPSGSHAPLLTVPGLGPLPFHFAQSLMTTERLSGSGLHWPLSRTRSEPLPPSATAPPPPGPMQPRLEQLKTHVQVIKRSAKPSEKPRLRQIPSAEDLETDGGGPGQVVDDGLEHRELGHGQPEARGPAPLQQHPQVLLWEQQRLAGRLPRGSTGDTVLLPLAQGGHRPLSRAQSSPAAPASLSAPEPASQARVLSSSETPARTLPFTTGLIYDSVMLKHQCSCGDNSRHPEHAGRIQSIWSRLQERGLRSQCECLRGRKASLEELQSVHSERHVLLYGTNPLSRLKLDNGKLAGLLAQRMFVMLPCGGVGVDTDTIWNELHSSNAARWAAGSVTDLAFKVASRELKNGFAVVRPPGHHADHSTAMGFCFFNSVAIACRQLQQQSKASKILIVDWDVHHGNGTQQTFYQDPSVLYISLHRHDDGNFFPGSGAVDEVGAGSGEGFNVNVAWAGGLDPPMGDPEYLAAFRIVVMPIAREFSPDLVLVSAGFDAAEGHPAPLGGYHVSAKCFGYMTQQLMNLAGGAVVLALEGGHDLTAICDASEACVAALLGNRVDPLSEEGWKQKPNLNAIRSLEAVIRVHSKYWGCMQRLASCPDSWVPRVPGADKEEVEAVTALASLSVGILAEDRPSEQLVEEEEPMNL

[3] = target: Beta-Transducin Repeat Containing E3 Ubiquitin Protein Ligase (BTRC) (human (endogenous in T24 and UMUC3 bladder cancer cells)) (UniProt Q9Y297); experiment: co-IP; T24 cells transfected with SRSF7 wild-type or Lys24 mutant (Lys→Ala) plasmids; lysate, primary antibody with protein A/G agarose beads, Western blot
[4] = target: T1, Histone deacetylase HDAC7 (human (endogenous in T24 and UMUC3 bladder cancer cells)); experiment: as above

B1: Serine and arginine rich splicing factor 7 (SRSF7) (protein, UniProt Q16629 1-238)
chain: MSRYGRYGGETKVYVGNLGTGAGKGELERAFSYYGPLRTVWIARNPPGFAFVEFEDPRDAEDAVRGLDGKVICGSRVRVELSTGMPRRSRFDRPPARRPFDPNDRCYECGEKGHYAYDCHRYSRRRRSRSRSRSHSRSRGRRYSRSRSRSRGRRSRSASPRRSRSISLRRSRSASLRRSRSGSIKGSRYFQSPSRSRSRSRSISRPRSSRSKSRSPSPKRSRSPSGSPRRSASPERMD
B1 was tested, and the binding [1] was “binds” and the binding [2] was “binds”.

B2: SRSF7 wild-type (plasmid, transfected) (protein, UniProt Q16629 1-238)
chain: B1 chain
B2 was tested, and the binding [3] was “binds” and the binding [4] was “binds”.

B3: SRSF7 Lys24 mutant (Lys→Ala) (plasmid, transfected) (protein, UniProt Q16629 1-238)
chain: B1 chain with K24A
With B3 the binding [3] was “binds” and the binding [4] was “binds”.
